Measurements from PubChem BioAssay AID540303 (National Center for Advancing Translational Sciences (NCATS), 2011).
About 1,000 (0.3%) of roughly 330,000 compounds were called active. Inconclusive results, whose numbers are uncertain, are shown with a selection of clear calls. Calls come from the whole dose curve; as a rule, active = well fitted inhibition curve with a large enough effect; inconclusive = small, poorly fitted or top-dose-only effect; inactive = no such curve, though single readings can be large or run the other way; tested in mouse RAW 264.7 cells. Where the call is inconclusive, the potency comes from a doubtful curve fit.

Experiment: qHTS for Inhibitors of Cell Surface uPA Generation; note: nearly all actives have a fitted effect of over 55% in size
Conditions: cell surface uPA generation assay; series mostly up to 38.3 µM
How it was run: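 Using RAW 264.7 macrophages, the screen measures whether compounds keep cellular ATP up by preventing uPA-driven LF translocation. Treatment lasted 24 h at 37 C, with a final top concentration of 38.3 uM, and luminescence was the readout.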
Potency is the fitted concentration of half-maximal effect.

**Q.** With `O=C(c1ccc(Br)cc1)N1CCCC(c2nc(-c3cccs3)no2)C1` (stereo unspecified) as the compound, how does the Potency read?
**A.** inconclusive: 12.6 µM [inhibitor, single point]

**Q.** For `Cc1ccc(F)c(NC(=O)c2ccc(Cn3cc(Cl)cn3)cc2)c1`, which Potency is on record?
**A.** inconclusive: 12.6 µM [inhibitor, single point]

**Q.** For `Cc1nc2c(-c3ccc(F)cc3)cnn2c(N)c1-c1ccccc1`, which Potency is on record?
**A.** active: 3.16 µM

**Q.** Which Potency does the source give for `CC(C)C[C@H](NC(=O)c1nc[nH]c1C(=O)N[C@@H](CCCCNC(=O)OC(C)(C)C)C(=O)OC(C)(C)C)C(=O)OC(C)(C)C` here?
**A.** inconclusive: 12.6 µM [inhibitor, single point]

**Q.** Which Potency does the source give for `COc1ccc2ccccc2c1-c1sc(Nc2ccccc2)n[n+]1-c1ccc(F)cc1` here?
**A.** inconclusive: 8.91 µM [inhibitor, partial curve]

**Q.** Which Potency does the source give for `COc1ccc(/C(C)=N/Nc2nccnc2Cl)cc1` here?
**A.** inconclusive: 10 µM [inhibitor, single point]

**Q.** With `CCOC(=O)CNC(c1ccccc1)c1cc(Br)ccc1NC(=O)CCN1CCOCC1` (stereo unspecified) as the compound, how does the Potency read?
**A.** active: 12.6 µM

**Q.** For `COC(=O)c1cccc(NC(=O)c2ccccc2)c1`, which Potency is on record?
**A.** inactive

**Q.** For `Oc1ccc(NCc2cccc(OCc3ccccc3)c2)cc1`, which Potency is on record?
**A.** inconclusive: 11.2 µM [inhibitor, single point]

**Q.** With `COc1ccc(-c2cc(-c3ccccc3)no2)cc1` as the compound, how does the Potency read?
**A.** inconclusive: 5.01 µM [inhibitor, partial curve, poor fit]

**Q.** With `C=CCN1C(=O)/C(=C2/Sc3ccc(OC)cc3N2C)SC1=Nc1cccc(O)c1` as the compound, how does the Potency read?
**A.** inactive

**Q.** For `O=S(=O)(c1cccc2ccccc12)N1CCCCC1`, which Potency is on record?
**A.** inactive

**Q.** For `COCCn1c(C)cc(C(=O)CSc2cc(C)c3ccccc3n2)c1C`, which Potency is on record?
**A.** inactive

**Q.** With `COc1ccc(OC)c(/C=N/NC(=O)c2cc(-c3ccc(C)o3)nc3ccccc23)c1` as the compound, how does the Potency read?
**A.** inconclusive: 8.91 µM [inhibitor, partial curve]

**Q.** For `O=C(c1cc(-c2ccc(Cl)cc2Cl)on1)N1CCOCC1`, which Potency is on record?
**A.** inconclusive: 7.94 µM [inhibitor, single point]

**Q.** Which Potency does the source give for `CCOc1ccc(Br)cc1C(=O)N/N=C/c1c[nH]c2ccccc12` here?
**A.** inconclusive: 28.2 µM [inhibitor, single point]

**Q.** Which Potency does the source give for `CCOC(=O)Cc1csc(NC(=O)COc2ccc(OC)cc2)n1` here?
**A.** inconclusive: 11.2 µM [inhibitor, single point]

**Q.** Which Potency does the source give for `COc1ccc(-c2cc(C(F)F)n3ncc(C(=O)N4CCN(C(=O)c5ccco5)CC4)c3n2)cc1` here?
**A.** active: 10 µM

**Q.** For `CC(=O)Nc1ccc(NC(=O)CSc2ncc(C(=O)Nc3ccc(Cl)cc3)c(=O)n2C)cc1`, which Potency is on record?
**A.** inconclusive: 10 µM [inhibitor, partial curve, poor fit]

**Q.** For `O=C(CSc1nnc(-c2ccccc2F)o1)NC(=O)Cc1ccccc1`, which Potency is on record?
**A.** inactive

**Q.** For `COC(=O)[C@@]1(Cc2ccc(F)cc2)[C@H]2c3cc(C(=O)N(C)C)n(Cc4nc5ccccc5[nH]4)c3C[C@H]2CN1C(=O)c1ccccc1`, which Potency is on record?
**A.** inconclusive: 31.6 µM [inhibitor, partial curve, poor fit]

**Q.** For `COc1ccc(N2CCN(C(=O)c3cc(-c4cccs4)nc4ccccc34)CC2)cc1`, which Potency is on record?
**A.** inactive

**Q.** With `Cc1cccc2c1c1ccc3c(c1n2C)C(=O)C=CC3=O` as the compound, how does the Potency read?
**A.** inconclusive: 3.55 µM [inhibitor, single point]

**Q.** With `CCN1C(=NCCCOC(C)C)N[C@@H](CCc2ccccc2)[C@H](C(=O)NCCCOC(C)C)[C@H]1C` as the compound, how does the Potency read?
**A.** inconclusive: 10 µM [inhibitor, single point]

**Q.** With `Cn1c2ccccc2c(=O)c2ccc(-c3ccc4c(c3)OCO4)cc21` as the compound, how does the Potency read?
**A.** inconclusive: 28.2 µM [inhibitor, single point]

**Q.** Which Potency does the source give for `CCN(CC)S(=O)(=O)c1ccc(C)c(NC(=S)N2CCN(C/C=C/c3ccccc3)CC2)c1` here?
**A.** inconclusive: 11.2 µM [inhibitor, partial curve]

**Q.** Which Potency does the source give for `COc1cc(Nc2ccc(C)cc2)c([N+](=O)[O-])nc1[N+](=O)[O-]` here?
**A.** inconclusive: 0.708 µM [inhibitor, full curve, poor fit]

**Q.** For `COc1ccc(C2Nc3ccccc3C(=O)N2c2ccc(C)cc2)cc1COc1ccccn1` (stereo unspecified), which Potency is on record?
**A.** inactive

**Q.** For `CCOc1cc(NS(=O)(=O)CC)c(OCC)cc1NC(=O)c1ccco1`, which Potency is on record?
**A.** inactive

**Q.** With `COc1ccc(Cl)cc1NC(=O)CN(C)C(=O)C1CC1` as the compound, how does the Potency read?
**A.** inconclusive: 1.58 µM [inhibitor, full curve, poor fit]

**Q.** Which Potency does the source give for `CC(CCCN(C)C)C(Cc1ccccc1)c1ccccc1` (stereo unspecified) here?
**A.** inactive

**Q.** For `CCN(CC)S(=O)(=O)c1ccc(Cl)c(NC(=S)NC(=O)C2CCCC2)c1`, which Potency is on record?
**A.** inconclusive: 11.2 µM [inhibitor, single point]

**Q.** With `CC(C)[C@H](NC(N)=O)C(=O)NCCc1ccc(Cl)cc1Cl` as the compound, how does the Potency read?
**A.** inconclusive: 2.51 µM [inhibitor, full curve, poor fit]

**Q.** Which Potency does the source give for `CCOc1ccc(CN2CCC(n3nccc3NC(=O)CCCc3ccccc3)CC2)cc1` here?
**A.** inactive

**Q.** Which Potency does the source give for `CCCn1nc2cc(C(=O)NCC34CC5CC(CC(C5)C3)C4)ccc2c1OCC` here?
**A.** inconclusive: 3.16 µM [inhibitor, partial curve, poor fit]

**Q.** For `CCCN(CCC)CCCNC(=S)Nc1ccc2nc(N3CCN(C)CC3)cc(C)c2c1`, which Potency is on record?
**A.** inconclusive: 11.2 µM [inhibitor, single point]

**Q.** For `O=C1NC(=S)SC1=Cc1ccc(F)cc1`, which Potency is on record?
**A.** inconclusive: 8.91 µM [inhibitor, single point]

**Q.** For `C[C@@H]1CN([C@H](C)CO)C(=O)Cc2cc(NC(=O)CCC(F)(F)F)ccc2O[C@@H]1CN(C)C(=O)Nc1ccccc1`, which Potency is on record?
**A.** inactive

**Q.** For `COc1ccc(S(=O)(=O)N2CCCCC2)cc1NC(=O)c1cccc(S(=O)(=O)N2CC(C)OC(C)C2)c1` (stereo unspecified), which Potency is on record?
**A.** inconclusive: 2.51 µM [inhibitor, partial curve, poor fit]

**Q.** With `C[C@H](CO)N1C[C@H](C)[C@@H](CN(C)Cc2ccc(-c3ccccc3)cc2)Oc2c(NC(=O)Cc3ccccc3)cccc2C1=O` as the compound, how does the Potency read?
**A.** inconclusive: 12.6 µM [inhibitor, single point]

**Q.** Which Potency does the source give for `Cc1ccc2nc(/C(C#N)=C\c3ccc(OC(=O)c4cccs4)cc3)[nH]c2c1` here?
**A.** inconclusive: 3.98 µM [inhibitor, partial curve]
